Data as given in PubChem BioAssay AID1224831 (NIAID, 2016).
Assay: 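Genes that support or restrain LPS-induced TNF-alpha reporter activity in macrophage-like cells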 (follow-up of hits). Cells: human THP-1 B5 monocytic leukaemia cells carrying a TNF promoter luciferase reporter, made macrophage-like with PMA. Reagent: single siRNA against human genes, 50 nM. Time to read-out: about 68 h of knock-down, then 4 h LPS. Challenge: LPS (Salmonella minnesota, TLR-grade) at 10 ng/ml for 4 h; PMA 5 ng/ml present during knock-down. Read-out: 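Firefly to renilla luciferase ratio of a TNF promoter reporter after 4 h LPS, scaled to plate median, turned into robust z-score, averaged over replicates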. Scale: TNF reporter z-score: higher = stronger LPS-induced TNF reporter signal; z-score, median over gene's siRNAs: higher = stronger TNF reporter signal across the gene's siRNAs. Call rule: 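Two-sided call: reduced or raised TNF reporter signal counts as active once mean z reaches about -1 or below, or about 1.5 or above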. Meaning of the calls: active = changed TNF reporter (either direction); inactive = little change.
Shown is an unselected part of about 3,500 deposited reagents. 731 of all reagents (21%) count as active. 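Active means either lowered or raised reporter signal; the gene-median score did not drive the per-siRNA calls.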 A number with no mark means an inactive call.

Gene	PubChem SID	TNF reporter z-score, replicate mean	z-score, median over gene's siRNAs
AVP	SID315482106	-0.57	-0.43
AVP	SID315482107	-0.29	-0.43
AVP	SID315482108	-0.67	-0.43
AVP	SID315482109	0.48	-0.43
AVP	SID315482110	-1.2 (active)	-0.43
AVP	SID315482111	2.07 (active)	-0.43
PLXDC1	SID315486033	-0.36	-0.015
PLXDC1	SID315486034	0.68	-0.015
PLXDC1	SID315486035	-1.27 (active)	-0.015
PLXDC1	SID315486036	-0.88	-0.015
PLXDC1	SID315486037	0.55	-0.015
PLXDC1	SID315486038	0.33	-0.015
KIT	SID315482520	-0.84	0.19
KIT	SID315482521	0.53	0.19
KIT	SID315482522	0.7	0.19
KIT	SID315482523	-0.67	0.19
KIT	SID315482524	0.84	0.19
KIT	SID315482525	-0.15	0.19
DYNLT5	SID315488022	-0.22	-0.05
DYNLT5	SID315488023	-0.2	-0.05
DYNLT5	SID315488024	0.12	-0.05
DYNLT5	SID315488025	0.12	-0.05
DYNLT5	SID315488026	0.1	-0.05
DYNLT5	SID315488027	-0.59	-0.05
VPS36	SID315485523	-2.08 (active)	-0.15
VPS36	SID315485524	2.64 (active)	-0.15
VPS36	SID315485525	-0.75	-0.15
VPS36	SID315485526	3.1 (active)	-0.15
VPS36	SID315485527	0.45	-0.15
VPS36	SID315485528	-1.15 (active)	-0.15
SNRPC	SID315482898	-0.72	-0.675
SNRPC	SID315482899	0	-0.675
SNRPC	SID315482900	-1.16 (active)	-0.675
SNRPC	SID315482901	-0.85	-0.675
SNRPC	SID315482902	-0.23	-0.675
SNRPC	SID315482903	-0.63	-0.675
DNAAF3	SID315489075	-0.2	0.06
DNAAF3	SID315489076	-0.31	0.06
DNAAF3	SID315489077	1.04	0.06
DNAAF3	SID315489078	0.32	0.06
DNAAF3	SID315489079	-1.8 (active)	0.06
DNAAF3	SID315489080	1.45	0.06
PDXK	SID315483102	0.18	-0.49
PDXK	SID315483103	0.49	-0.49
PDXK	SID315483104	-1.44 (active)	-0.49
PDXK	SID315483105	-1.16 (active)	-0.49
PDXK	SID315483106	-1.4 (active)	-0.49
PDXK	SID315483107	0.33	-0.49
RGS20	SID315483108	0.8	0.085
RGS20	SID315483109	-0.03	0.085
RGS20	SID315483110	0.15	0.085
RGS20	SID315483111	0.02	0.085
RGS20	SID315483112	-0.4	0.085
RGS20	SID315483113	0.6	0.085
CFLAR	SID315483138	-2.03 (active)	-1.15
CFLAR	SID315483139	-1.44 (active)	-1.15
CFLAR	SID315483140	-2.12 (active)	-1.15
CFLAR	SID315483141	1.45	-1.15
CFLAR	SID315483142	-0.62	-1.15
CFLAR	SID315483143	-0.85	-1.15
CCR2	SID315489324	-0.52	0.83
CCR2	SID315489325	1.14	0.83
CCR2	SID315489326	1.49	0.83
CCR2	SID315489327	-0.02	0.83
CCR2	SID315489328	0.52	0.83
CCR2	SID315489329	4.17 (active)	0.83
MGAT2	SID315482592	-0.22	-0.29
MGAT2	SID315482593	0.46	-0.29
MGAT2	SID315482594	-1.07 (active)	-0.29
MGAT2	SID315482595	-0.23	-0.29
MGAT2	SID315482596	-1.47 (active)	-0.29
MGAT2	SID315482597	-0.35	-0.29
SEPTIN11	SID315485883	1.16	0.605
SEPTIN11	SID315485884	0.28	0.605
SEPTIN11	SID315485885	0.93	0.605
SEPTIN11	SID315485886	1.36	0.605
SEPTIN11	SID315485887	-0.27	0.605
SEPTIN11	SID315485888	0.27	0.605
MSRB3	SID315488550	0.87	0.705
MSRB3	SID315488551	0.27	0.705
MSRB3	SID315488552	0.54	0.705
MSRB3	SID315488553	1.15	0.705
MSRB3	SID315488554	1.75 (active)	0.705
MSRB3	SID315488555	-0.35	0.705
